Library screen at single concentrations

Sequences of proteins named here, by UniProt entry; tags and fusion partners are left off. Residues count along the entry.
UniProt P9WPC5, whole entry: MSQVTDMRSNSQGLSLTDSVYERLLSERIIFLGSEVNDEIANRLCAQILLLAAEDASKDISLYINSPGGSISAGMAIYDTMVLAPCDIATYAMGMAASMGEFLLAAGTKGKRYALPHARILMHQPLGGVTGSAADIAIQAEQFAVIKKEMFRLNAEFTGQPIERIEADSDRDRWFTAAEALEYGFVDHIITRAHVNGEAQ
UniProt P9WPC3, whole entry partner: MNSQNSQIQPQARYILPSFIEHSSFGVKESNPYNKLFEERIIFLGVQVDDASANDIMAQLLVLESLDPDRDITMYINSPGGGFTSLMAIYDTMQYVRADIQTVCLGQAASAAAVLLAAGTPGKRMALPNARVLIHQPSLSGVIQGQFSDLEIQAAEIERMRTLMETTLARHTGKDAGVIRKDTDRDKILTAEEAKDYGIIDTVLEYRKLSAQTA
UniProt Q4DA54, 1-478: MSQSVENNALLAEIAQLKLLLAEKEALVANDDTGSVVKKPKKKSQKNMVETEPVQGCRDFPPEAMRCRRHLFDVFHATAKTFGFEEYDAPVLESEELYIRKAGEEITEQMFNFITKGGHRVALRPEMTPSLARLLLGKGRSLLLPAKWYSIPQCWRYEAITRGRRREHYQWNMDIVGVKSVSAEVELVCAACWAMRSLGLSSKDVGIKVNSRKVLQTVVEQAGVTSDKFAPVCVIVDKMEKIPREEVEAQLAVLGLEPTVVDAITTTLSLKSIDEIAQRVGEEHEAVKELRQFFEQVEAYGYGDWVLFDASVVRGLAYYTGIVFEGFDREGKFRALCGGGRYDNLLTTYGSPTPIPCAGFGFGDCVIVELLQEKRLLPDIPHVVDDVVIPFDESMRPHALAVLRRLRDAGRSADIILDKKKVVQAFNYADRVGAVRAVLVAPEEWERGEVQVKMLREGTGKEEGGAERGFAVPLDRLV
UniProt I6X8D2, whole entry: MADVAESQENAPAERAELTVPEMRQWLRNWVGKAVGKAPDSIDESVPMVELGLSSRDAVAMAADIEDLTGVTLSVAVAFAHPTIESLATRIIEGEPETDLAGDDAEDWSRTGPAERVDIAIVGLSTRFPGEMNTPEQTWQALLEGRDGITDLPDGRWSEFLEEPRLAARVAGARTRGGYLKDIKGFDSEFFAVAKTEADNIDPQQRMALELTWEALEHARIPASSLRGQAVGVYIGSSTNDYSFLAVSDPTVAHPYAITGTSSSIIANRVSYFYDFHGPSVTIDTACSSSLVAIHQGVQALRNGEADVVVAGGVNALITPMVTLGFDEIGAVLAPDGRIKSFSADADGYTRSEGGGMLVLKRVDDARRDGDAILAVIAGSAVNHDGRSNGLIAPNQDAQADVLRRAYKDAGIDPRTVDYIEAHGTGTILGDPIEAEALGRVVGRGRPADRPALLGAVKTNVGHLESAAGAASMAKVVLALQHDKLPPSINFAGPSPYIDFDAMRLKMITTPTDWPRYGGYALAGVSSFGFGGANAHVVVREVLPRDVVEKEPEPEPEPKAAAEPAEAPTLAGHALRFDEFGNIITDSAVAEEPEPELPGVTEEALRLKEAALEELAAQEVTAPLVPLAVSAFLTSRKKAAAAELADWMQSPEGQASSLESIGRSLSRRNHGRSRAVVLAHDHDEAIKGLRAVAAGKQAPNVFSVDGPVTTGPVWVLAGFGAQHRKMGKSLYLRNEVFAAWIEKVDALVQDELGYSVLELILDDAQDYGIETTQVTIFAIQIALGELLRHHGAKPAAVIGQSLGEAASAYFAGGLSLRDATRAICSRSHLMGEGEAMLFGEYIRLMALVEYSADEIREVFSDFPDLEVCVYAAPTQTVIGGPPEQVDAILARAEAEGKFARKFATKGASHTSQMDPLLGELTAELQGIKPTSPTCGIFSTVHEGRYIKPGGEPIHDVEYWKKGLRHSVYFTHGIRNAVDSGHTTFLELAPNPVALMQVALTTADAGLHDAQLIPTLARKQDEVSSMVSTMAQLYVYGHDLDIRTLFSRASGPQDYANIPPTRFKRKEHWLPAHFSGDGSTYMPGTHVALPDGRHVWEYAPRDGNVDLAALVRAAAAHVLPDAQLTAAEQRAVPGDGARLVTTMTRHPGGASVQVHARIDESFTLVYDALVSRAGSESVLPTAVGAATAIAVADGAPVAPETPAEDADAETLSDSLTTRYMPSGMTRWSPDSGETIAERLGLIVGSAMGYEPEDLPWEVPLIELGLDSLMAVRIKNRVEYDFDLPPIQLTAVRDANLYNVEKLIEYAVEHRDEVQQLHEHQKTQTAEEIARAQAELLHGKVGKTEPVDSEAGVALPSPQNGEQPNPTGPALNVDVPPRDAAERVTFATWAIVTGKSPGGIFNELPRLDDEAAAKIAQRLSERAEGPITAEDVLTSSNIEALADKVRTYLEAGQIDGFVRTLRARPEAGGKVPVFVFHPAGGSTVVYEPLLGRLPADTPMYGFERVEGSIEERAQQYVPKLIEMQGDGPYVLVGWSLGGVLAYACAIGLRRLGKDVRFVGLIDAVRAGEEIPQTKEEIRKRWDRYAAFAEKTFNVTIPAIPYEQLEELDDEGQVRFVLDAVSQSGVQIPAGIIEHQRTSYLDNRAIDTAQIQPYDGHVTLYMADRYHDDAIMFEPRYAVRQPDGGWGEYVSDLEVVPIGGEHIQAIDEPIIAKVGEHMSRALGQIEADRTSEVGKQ
UniProt Q8IDJ8, 1-583: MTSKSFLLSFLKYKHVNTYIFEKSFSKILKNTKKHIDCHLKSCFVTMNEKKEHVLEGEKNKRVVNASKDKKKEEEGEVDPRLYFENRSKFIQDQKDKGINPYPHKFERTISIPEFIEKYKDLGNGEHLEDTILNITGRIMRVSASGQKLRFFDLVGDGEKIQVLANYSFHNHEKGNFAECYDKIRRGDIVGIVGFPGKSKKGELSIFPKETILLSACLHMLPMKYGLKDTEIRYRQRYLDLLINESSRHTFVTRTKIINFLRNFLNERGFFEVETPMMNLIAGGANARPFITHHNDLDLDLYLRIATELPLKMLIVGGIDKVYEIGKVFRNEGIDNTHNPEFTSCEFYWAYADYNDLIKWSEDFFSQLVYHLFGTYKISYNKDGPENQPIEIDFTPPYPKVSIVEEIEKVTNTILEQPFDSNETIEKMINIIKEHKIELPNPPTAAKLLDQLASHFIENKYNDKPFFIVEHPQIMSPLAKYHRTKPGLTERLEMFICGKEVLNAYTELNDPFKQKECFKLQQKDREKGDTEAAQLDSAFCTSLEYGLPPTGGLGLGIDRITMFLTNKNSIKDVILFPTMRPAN

Data taken from ChEMBL document CHEMBL3988442, “University of Dundee, Small-Polar-MMV Screening Library” (2021).

ClpP1P2: 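ClpP1P2, Mycobacterium tuberculosis (UniProt P9WPC5 and UniProt P9WPC3). Protease assay of ClpP1P2, read by the AMC dye that it sets free. Concentration: 50 µM. Direction is inferred from only a few compounds that gave an IC50; most scored high, so higher reads as stronger inhibition. Most other retested compounds had strongly negative values. Size under these conditions: about 69,000 compounds, about 10 of them at 50% or above in at least one test.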
Toxoplasma: 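Assay of Toxoplasma gondii numbers, read through their beta-galactosidase reporter with a colour substrate. Compounds at 10 µM. Higher reads as fewer parasites (inferred from which compounds were picked for retests). Of about 67,000 compounds tested this way, about 260 (0.38%) reached 50% or more in at least one test.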
TcHisRS: 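Histidine-tRNA ligase, Trypanosoma cruzi CL Brener (UniProt Q4DA54). Enzyme assay of histidyl-tRNA synthetase; the read-out is not stated. Tested at 30 µM. The record gives no direction; compounds that gave an IC50 in retests scored well above the rest, so higher reads as stronger inhibition. Size under these conditions: about 69,000 compounds, about 31 of them at 50% or above in at least one test.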
Pks13 thioesterase: 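Enzyme assay of the thioesterase domain of polyketide synthase 13; the read-out is not stated. Target: Polyketide synthase Pks13, Mycobacterium tuberculosis (UniProt I6X8D2). Tested at 30 µM. Higher reads as stronger inhibition (inferred from which compounds were picked for retests). Of about 67,000 compounds tested this way, about 300 (0.46%) reached 50% or more in at least one test.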
PfKRS1: 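Enzyme assay of the cytosolic lysyl-tRNA synthetase in 384-well plates, read by luminescence. Target: Lysine-tRNA ligase, Plasmodium falciparum 3D7 (UniProt Q8IDJ8). Tested at 30 µM. Direction is inferred from only a few compounds that gave an IC50; most scored high, so higher reads as stronger inhibition. Of about 69,000 compounds tested this way, about 49 (0.071%) reached 50% or more in at least one test.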

Each number is a percent effect as filed.
The record does not define 0% and 100%; most values in the screen are far below 50% and negative numbers occur (in some assays of this library far below -100).
This is an unselected part of the compounds tested.
A dash means the value is not listed here; it may have been measured.

Compound	ClpP1P2	Toxoplasma	TcHisRS	Pks13 thioesterase	PfKRS1
CS(=O)(=O)N1CCCC(c2cncc(Nc3ccccn3)n2)C1 (centres unmarked)	-6.59%	-10.9%	3.333%	12.7%	-0.1227%
COc1c(C)cnc(CN2CCCC2c2noc(C)n2)c1C (centres unmarked)	8.545%	-1.721%	-0.5525%	-28.82%	-4.294%
O=C(NCCNc1cnccn1)N1CCN(Cc2cccnc2)CC1	1.142%	4.556%	-0.3759%	8.214%	2.081%
COc1ccc(N2CCN(C(=O)CCn3nccc3C)CC2(C)C)cc1	11.7%	1.387%	1.064%	-20.96%	-2.774%
O=C(C1CCOCC1)N1C[C@H]2CC[C@@H]1CN(C1Cc3ccccc3C1)C2	-11.92%	-	6.977%	6.267%	5.106%
O=c1ccc2c(n1CCN1CCCC1)CCN(c1ncccn1)CC2	-5.122%	-0.6625%	7.778%	11.57%	3.929%
Cc1ccc(NCCCNC(=O)C2CCCN(Cc3ccco3)C2)nc1 (centres unmarked)	14.19%	-0.2758%	5.587%	-18.71%	1.09%
COc1c(CNC(c2ccc(F)cc2)C(C)(C)C)c(C)nn1C (centres unmarked)	8.526%	-5.222%	1.141%	-6.335%	-0.8125%
CN(CCCOc1ccccc1Cl)C(=O)CN1CCCCCC1=O	-24.51%	-33.13%	-0.8929%	-16.68%	2.472%
COc1ccc(C(=O)N2C[C@@H](c3ccccc3)[C@@H]3NCCCC[C@@H]32)cc1	-6.439%	-	3.802%	-6.357%	-0.09116%
CN1C(=O)c2cccc(NC(=O)c3ccc4c(c3)OCCO4)c2C1=O	30.87%	8.773%	2.591%	-18.01%	4.869%
CS(=O)(=O)NC1CCN(C(=O)CCn2cccn2)CC1	-17.39%	-20.87%	5.946%	-10.13%	7.566%
CC(CO)NC(=O)Nc1ccc(CC#N)cc1 (centres unmarked)	0.4186%	8.233%	-1.235%	1.716%	1.455%
COCCN(C)CCN1CC2(CCN(C3CCCNC3)CC2)OC1=O (centres unmarked)	-6.501%	-0.4055%	-1.508%	10.19%	9.376%
O=S1(=O)N=C(CSCc2ccccc2)Nc2ccccc21	1.162%	-5.455%	8.333%	-18%	1.776%
Cc1cnc(N2CCC3(CC2)CC3CNC(=O)C2CCC2)nc1.O=C(O)C(F)(F)F (centres unmarked)	-	9.49%	-	-	-
Cc1nc(CN2Cc3nccn3CC(CN3CCCC3)C2)cs1 (centres unmarked)	-5.245%	-	4.478%	-19.26%	5.028%
NCC(=O)N1CCC(c2cncc(Oc3cccnc3)n2)CC1	1.177%	11.4%	3.333%	0.7679%	3.741%
c1ccc(CN2CCCn3nnc(Cn4cccc4)c3C2)nc1	2.164%	-	6.952%	-30.55%	3.588%
O=C1CNc2ncnc(NCc3cccs3)c2N1	-229.8%	6.384%	9.292%	-12.06%	7.298%
CCNC(c1ccc(Cl)cc1)c1cccnc1 (centres unmarked)	-4.379%	2.94%	-1.433%	-7.846%	-0.4408%
C=C(C)COc1ccccc1NC(=O)N1CCCCC1CO (centres unmarked)	-3.243%	-2.806%	7.143%	-9.936%	1.985%
CNC(=O)Nc1cc(-c2ccccc2C)nn1CCO	6.871%	1.257%	5.435%	-31.11%	-3.633%
O=C1CCCN1CCCC(=O)N1CCCC(c2ccn[nH]2)C1 (centres unmarked)	-4.091%	2.05%	0.7605%	-0.2054%	0.7901%
CC(CNC(=O)c1ccccc1Oc1cccnc1)N(C)C (centres unmarked)	-14.4%	-0.4616%	-0.8333%	-24.85%	-1.388%
O=C1N(Cc2cccnc2)CCC12CCCNC2 (centres unmarked)	21.63%	4.541%	-7.519%	1.387%	-6.329%
Cc1nn(C)c(Cl)c1C1CCCN1CC(=O)NCc1ccccn1 (centres unmarked)	-6.53%	-3.768%	1.128%	-10.74%	2.758%
CNc1oc(-c2ccc(S(=O)(=O)N(C)C)o2)nc1C#N	-1022%	44.93%	7%	-	1.857%
COc1cc(CNCc2c(C)nn(CC(C)C)c2N(C)C)ccn1	15.4%	-23.03%	1.744%	-13.7%	-2.376%
COc1c(CNCCC(=O)Nc2cccc(C)n2)c(C)nn1C	-1.523%	4.103%	3.665%	-31.74%	-0.5237%
COc1c(Br)cccc1CCNC(=O)c1ncoc1C	-0.5712%	2.935%	2.941%	-20%	1.276%
COc1cccc(CN2CCCCCC2c2sccc2C)c1O (centres unmarked)	10.16%	9.847%	9.548%	-11.71%	-0.01163%
COCCOC(=O)N1CCn2nc(CN(C)Cc3nccs3)cc2C1	17.58%	2.62%	7.463%	-9.951%	-2.119%
c1ccc(CCCN2CC[C@H](c3nnc(-c4ccccc4)o3)C2)cc1	1.78%	-2.033%	17.82%	96.39%	6.617%
Cn1cc(C#N)cc1C(=O)NC1(C#N)CCSCC1	3.338%	-0.5446%	5.195%	-45.02%	3.507%
O=C(O)C(F)(F)F.O=C(O)C(F)(F)F.O=C1CCC2(CCCN(Cc3nccs3)C2)N1CC1CC1 (centres unmarked)	-	-4.604%	-	-	-
O=C(Nc1cnccn1)[C@H]1CC[C@@H]2[C@@H](CCN2Cc2ccoc2)O1	2.288%	-	2.804%	-29.87%	-3.38%
O=C(C1CC=CC1)N1C[C@@H]2CN(Cc3ccsc3)CCO[C@@H]2C1	-7.331%	-	6.122%	-6.374%	1.656%
COc1ccc(CN2CCC3(CC2)CCN(CC(C)C)C3=O)cc1	0.299%	-	1.504%	-	4.693%
CCN1CCC2(C=C(C(=O)NC3CC3)c3ccccc32)CC1	-0.1709%	-	-0.7519%	-	3.41%
CC(C)NC(=O)C(c1ccccc1)N1CCn2c(nnc2C2CC2)C1 (centres unmarked)	-0.8578%	28.65%	0.7634%	-13.8%	8.369%
CCc1ccc(S(=O)(=O)N2CCCC(c3ncc[nH]3)C2)s1 (centres unmarked)	0.9529%	10.52%	4.545%	-31.92%	-2.06%
CN(Cc1cncs1)C1CCN(C(=O)OC(C)(C)C)CC1	0.442%	2.594%	3.571%	-8.481%	1.56%
[H][C@]12CC[C@]([H])(CN(C3CCOCC3)C1)N(Cc1cnc(SCC)nc1)C2	-	6.165%	-	-	-
Cc1ccc(CN(CCCn2ccnc2)Cc2cnn(C)c2)s1	24.01%	-	8.209%	-25.04%	-1.575%
O=c1cc(N2CCNCC2)cnn1Cc1noc(C2CCCC2)n1	-3.669%	-2.971%	5.455%	-18.04%	1.003%
O=C(O)C(F)(F)F.[H][C@@]12CCN(Cc3ccccc3)[C@@]1([H])CC(=O)N2CCOC	-	-5.71%	-	-	-
COCc1cccc(C(=O)N2CCCCC2c2nccs2)c1 (centres unmarked)	-0.2285%	8.903%	3.759%	-14.03%	2.023%
COCCN1CCC2(CC1)CC(N1CCOCC1)c1ccc(C)cc12.O=C(O)C(F)(F)F.O=C(O)C(F)(F)F (centres unmarked)	-	-16.85%	-	-	-
Cc1ccc2nc(C3CCN(CC(C)C)CC3)nc(O)c2c1	5.302%	7.676%	2.959%	-27.14%	2.708%
O=C1OC2(CCNCC2)CN1CC(=O)N1CCCC1c1ccco1 (centres unmarked)	-6.027%	-4.039%	0.8333%	-14.01%	0.5088%
COCc1nc2nc(O)c3c(n2n1)NC(=O)CC3c1ccccc1Cl (centres unmarked)	-17.07%	-8.816%	4.39%	-11.73%	5.298%
CC(C)OCCCNC(=O)N(C)C(C)c1ccc(-n2cncn2)cc1 (centres unmarked)	-0.9801%	-3.991%	1.911%	-40.33%	-1.009%
CC(C)Oc1cccc(F)c1C(C(=O)O)N1CCCN(C)CC1 (centres unmarked)	-11.06%	16.63%	4.348%	-4.771%	-6.364%
O=C(NCCN1CCOCC1)c1ccc(OCc2ccccc2)nc1	-2.159%	-1.127%	1.111%	-27.24%	-0.962%
OC[C@H]1CC[C@]2(CC1)CN(Cc1ccccc1F)Cc1ccccc1O2	-1.916%	-	0.5405%	-15.13%	-0.1608%
c1csc(-c2cc(CN3CCN(c4nccs4)CC3)no2)c1	-8.869%	-6.833%	6.122%	14.54%	5.718%
CCC(NC(=O)c1c(C(=O)O)cnn1C)c1ccc(C)cc1C (centres unmarked)	11.22%	11.81%	3.468%	19.58%	3.906%

Once more, the final 7:

Compound,ClpP1P2,Toxoplasma,TcHisRS,Pks13 thioesterase,PfKRS1
COCc1nc2nc(O)c3c(n2n1)NC(=O)CC3c1ccccc1Cl (centres unmarked),-17.07%,-8.816%,4.39%,-11.73%,5.298%
CC(C)OCCCNC(=O)N(C)C(C)c1ccc(-n2cncn2)cc1 (centres unmarked),-0.9801%,-3.991%,1.911%,-40.33%,-1.009%
CC(C)Oc1cccc(F)c1C(C(=O)O)N1CCCN(C)CC1 (centres unmarked),-11.06%,16.63%,4.348%,-4.771%,-6.364%
O=C(NCCN1CCOCC1)c1ccc(OCc2ccccc2)nc1,-2.159%,-1.127%,1.111%,-27.24%,-0.962%
OC[C@H]1CC[C@]2(CC1)CN(Cc1ccccc1F)Cc1ccccc1O2,-1.916%,-,0.5405%,-15.13%,-0.1608%
c1csc(-c2cc(CN3CCN(c4nccs4)CC3)no2)c1,-8.869%,-6.833%,6.122%,14.54%,5.718%
CCC(NC(=O)c1c(C(=O)O)cnn1C)c1ccc(C)cc1C (centres unmarked),11.22%,11.81%,3.468%,19.58%,3.906%